Results are given in words; binding and its absence hold for the method and conditions named. For part of these data: Binding can be weak; no strength is given.
How the values were obtained:
[1] = target: polygalacturonase of Fusarium verticillioides (FvPG) strain 62264 (Fusarium verticillioides); test: SAXS; non-cross-linked PvPGIP2-FvPG solution; p(r) functions and Rg followed over time in steps of 20 hours; both purified
[2] = target: Polygalacturonase 1 of Colletotrichum lupini (CluPG1) strain SHK78813 (Colletotrichum lupini); test: cross-linking; 1% methanol-free formaldehyde, 50 mM NaOAc pH 4.6, 28°C, 16 h, molar ratio 1:1; analysed by SDS-PAGE; both purified
[3] = target: Polygalacturonase 1 of Colletotrichum lupini (CluPG1) strain SHK78813 (Colletotrichum lupini); test: SAXS; cross-linked CluPG1-PvPGIP2 sample concentrated to 22 μM, 25.0°C; ab initio (GA_STRUCT) and rigid body (SASREF) modelling; both purified

B1: PG-inhibiting protein 2 of Phaseolus vulgaris pv Pinto (PvPGIP2) (protein, UniProt P58822 30-342)
chain: ELCNPQDKQALLQIKKDLGNPTTLSSWLPTTDCCNRTWLGVLCDTDTQTYRVNNLDLSGLNLPKPYPIPSSLANLPYLNFLYIGGINNLVGPIPPAIAKLTQLHYLYITHTNVSGAIPDFLSQIKTLVTLDFSYNALSGTLPPSISSLPNLVGITFDGNRISGAIPDSYGSFSKLFTSMTISRNRLTGKIPPTFANLNLAFVDLSRNMLEGDASVLFGSDKNTQKIHLAKNSLAFDLGKVGLSKNLNGLDLRNNRIYGTLPQGLTQLKFLHSLNVSFNNLCGEIPQGGNLQRFDVSAYANNKCLCGSPLPACT
B1 was tested, and the binding [1] was “no binding”, the binding [2] was “binds” and the binding [3] was “binds”.
